Data as given in PubChem BioAssay AID1671195 (Yale University, 2021)
This is one part, drawn at random, of about 22,000 deposited reagents. Of all reagents, about 1,510 (6.9%) got an active call. 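Active includes knockdowns raising or lowering LDL uptake; positive z-scores mean more uptake, negative mean less.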

Assay: 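Genes whose knockdown alters LDL uptake in liver cancer cells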 (primary screen)
System: human Huh7 hepatoma cells
Knock-down reagent: siRNA pool against human genes, 18 nM
Duration: about 2 to 2.5 days of knockdown, then 8 h LDL uptake
Treatment: DiI-labelled LDL at 30 µg/ml for 8 h, in lipoprotein-deficient serum medium
Detection: 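Per-cell DiI-LDL intensity by automated imaging; well means scaled to the plate median and given as a robust z-score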
Scale: robust z-score: higher = more LDL uptake after knockdown
Active means: 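Active when two or more replicates show a robust z-score above 2 or below -2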

LRRCC1 (leucine rich repeat and coiled-coil centrosomal protein 1)
- robust z-score, replicate 1: 3.46
- robust z-score, replicate 2: 2.91
- robust z-score, replicate 3: 3.64
- Outcome: active

OR2T6 (olfactory receptor family 2 subfamily T member 6)
- robust z-score, replicate 1: -1.28
- robust z-score, replicate 2: -0.838
- robust z-score, replicate 3: -1
- Outcome: inactive

MPZL3 (myelin protein zero like 3)
- robust z-score, replicate 1: 0.203
- robust z-score, replicate 2: -0.356
- robust z-score, replicate 3: -0.769
- Outcome: inactive

RNASE10 (ribonuclease A family member 10 (inactive))
- robust z-score, replicate 1: -0.135
- robust z-score, replicate 2: -0.371
- robust z-score, replicate 3: 0.121
- Outcome: inactive

ATP6V1F (ATPase H+ transporting V1 subunit F)
- robust z-score, replicate 1: -1.19
- robust z-score, replicate 2: -0.802
- robust z-score, replicate 3: -1.19
- Outcome: inactive

CEP55 (centrosomal protein 55)
- robust z-score, replicate 1: -0.0196
- robust z-score, replicate 2: -0.752
- robust z-score, replicate 3: 0.149
- Outcome: inactive

AP3B1 (adaptor related protein complex 3 subunit beta 1)
- robust z-score, replicate 1: 3.06
- robust z-score, replicate 2: 0.523
- robust z-score, replicate 3: 1.12
- Outcome: inactive

DOCK1 (dedicator of cytokinesis 1)
- robust z-score, replicate 1: 0.329
- robust z-score, replicate 2: 0.236
- robust z-score, replicate 3: 0.0903
- Outcome: inactive

ASTN1 (astrotactin 1)
- robust z-score, replicate 1: -0.0637
- robust z-score, replicate 2: 0.948
- robust z-score, replicate 3: -0.284
- Outcome: inactive

MORN3 (MORN repeat containing 3)
- robust z-score, replicate 1: 0.163
- robust z-score, replicate 2: 0.586
- robust z-score, replicate 3: 0.464
- Outcome: inactive

CLUHP3 (CLUH pseudogene 3)
- robust z-score, replicate 1: -1.05
- robust z-score, replicate 2: -1.43
- robust z-score, replicate 3: -1.53
- Outcome: inactive

PRTG (protogenin)
- robust z-score, replicate 1: -0.0536
- robust z-score, replicate 2: -0.14
- robust z-score, replicate 3: -0.146
- Outcome: inactive

RGS11 (regulator of G protein signaling 11)
- robust z-score, replicate 1: 0.099
- robust z-score, replicate 2: -0.166
- robust z-score, replicate 3: -0.0251
- Outcome: inactive

UBTD2 (ubiquitin domain containing 2)
- robust z-score, replicate 1: 1
- robust z-score, replicate 2: 0.383
- robust z-score, replicate 3: 0.348
- Outcome: inactive

LOC440135 (retired record)
- robust z-score, replicate 1: -0.625
- robust z-score, replicate 2: -0.818
- robust z-score, replicate 3: -0.265
- Outcome: inactive

SRPRB (SRP receptor subunit beta)
- robust z-score, replicate 1: 1.01
- robust z-score, replicate 2: -0.0637
- robust z-score, replicate 3: 0.181
- Outcome: inactive

GHRHR (growth hormone releasing hormone receptor)
- robust z-score, replicate 1: -0.3
- robust z-score, replicate 2: 1.31
- robust z-score, replicate 3: 0.0604
- Outcome: inactive

PTER (phosphotriesterase related)
- robust z-score, replicate 1: 0.811
- robust z-score, replicate 2: 1.74
- robust z-score, replicate 3: 0.583
- Outcome: inactive

SYT17 (synaptotagmin 17)
- robust z-score, replicate 1: 0.944
- robust z-score, replicate 2: 1.02
- robust z-score, replicate 3: -1.56
- Outcome: inactive

OR5D16 (olfactory receptor family 5 subfamily D member 16)
- robust z-score, replicate 1: 0.0957
- robust z-score, replicate 2: -0.489
- robust z-score, replicate 3: -0.372
- Outcome: inactive

LOC388657 (retired record)
- robust z-score, replicate 1: -0.478
- robust z-score, replicate 2: -0.257
- robust z-score, replicate 3: -0.773
- Outcome: inactive

JAG1 (jagged canonical Notch ligand 1)
- robust z-score, replicate 1: 1.4
- robust z-score, replicate 2: 2.66
- robust z-score, replicate 3: 0.32
- Outcome: inactive

CHSY3 (chondroitin sulfate synthase 3)
- robust z-score, replicate 1: -0.852
- robust z-score, replicate 2: -1.09
- robust z-score, replicate 3: -0.681
- Outcome: inactive

C2orf80 (chromosome 2 open reading frame 80)
- robust z-score, replicate 1: -0.2
- robust z-score, replicate 2: 0.0121
- robust z-score, replicate 3: 0.0653
- Outcome: inactive

3 of these entries in another layout:
target	robust z-score, replicate 1	robust z-score, replicate 2	robust z-score, replicate 3	Outcome
DOCK1 (dedicator of cytokinesis 1)	0.329	0.236	0.0903	inactive
ASTN1 (astrotactin 1)	-0.0637	0.948	-0.284	inactive
MORN3 (MORN repeat containing 3)	0.163	0.586	0.464	inactive
